PMC11508090

Tests used:
Test in all cases: proximity labelling; eleven TurboID fusion strains (ndt80, homozygous) and a no-TurboID control, ~24 h sporulation, two replicates; TCA extract, streptavidin-sepharose pull-down, trypsin, UPLC-MS/MS; targets = in both replicates and in neither control
[1] = molecular target: T1, Msh4-TurboID (S. cerevisiae) (UniProt P40965)
T1 sequence: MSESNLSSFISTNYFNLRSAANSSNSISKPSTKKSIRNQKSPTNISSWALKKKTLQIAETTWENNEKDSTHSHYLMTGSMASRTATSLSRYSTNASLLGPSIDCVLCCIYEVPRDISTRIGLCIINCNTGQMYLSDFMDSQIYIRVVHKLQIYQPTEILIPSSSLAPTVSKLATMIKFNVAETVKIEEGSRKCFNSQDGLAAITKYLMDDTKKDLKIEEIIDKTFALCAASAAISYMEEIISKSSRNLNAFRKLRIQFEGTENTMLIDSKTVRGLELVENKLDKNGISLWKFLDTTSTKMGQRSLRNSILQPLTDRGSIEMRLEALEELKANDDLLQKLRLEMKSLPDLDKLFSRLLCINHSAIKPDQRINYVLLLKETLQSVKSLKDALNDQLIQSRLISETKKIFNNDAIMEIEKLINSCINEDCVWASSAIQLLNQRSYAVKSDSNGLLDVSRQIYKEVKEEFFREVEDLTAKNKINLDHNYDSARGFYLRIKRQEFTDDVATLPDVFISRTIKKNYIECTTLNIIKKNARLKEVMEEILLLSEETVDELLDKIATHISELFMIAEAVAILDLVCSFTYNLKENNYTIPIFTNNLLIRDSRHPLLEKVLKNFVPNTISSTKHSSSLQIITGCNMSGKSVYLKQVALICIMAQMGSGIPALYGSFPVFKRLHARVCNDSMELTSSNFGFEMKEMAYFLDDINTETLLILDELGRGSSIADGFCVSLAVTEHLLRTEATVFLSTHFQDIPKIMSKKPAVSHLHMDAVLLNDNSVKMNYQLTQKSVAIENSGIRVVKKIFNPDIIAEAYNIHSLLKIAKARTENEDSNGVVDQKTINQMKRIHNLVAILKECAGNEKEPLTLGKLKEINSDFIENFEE

[2] = molecular target: T2, Spo16-TurboID (S. cerevisiae) (UniProt P17122)
T2 sequence: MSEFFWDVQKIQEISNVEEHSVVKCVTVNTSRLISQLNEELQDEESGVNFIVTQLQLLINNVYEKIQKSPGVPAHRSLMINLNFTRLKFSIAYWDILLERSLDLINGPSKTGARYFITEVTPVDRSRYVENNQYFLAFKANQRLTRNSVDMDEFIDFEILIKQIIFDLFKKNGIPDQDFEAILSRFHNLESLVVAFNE

[3] = molecular target: T3, TurboID-Gmc2 (S. cerevisiae) (UniProt Q06201)
T3 sequence: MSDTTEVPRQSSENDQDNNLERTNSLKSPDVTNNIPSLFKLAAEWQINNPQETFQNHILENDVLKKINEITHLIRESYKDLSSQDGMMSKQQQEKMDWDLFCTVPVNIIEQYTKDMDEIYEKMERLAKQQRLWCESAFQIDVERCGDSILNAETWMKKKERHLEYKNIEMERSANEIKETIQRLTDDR

Measured: binding

Zip4 (S. cerevisiae)
no binding: all assays above

These are yes or no findings as the source states them, for the method shown. Binding seen in cells or lysates may run through a third protein. A yes stands for co-enrichment or nearness to the bait. Other partners may have been found. A no says only that the protein was not detected with the bait.
